PubChem BioAssay AID256 (DTP/NCI, 2004)
The list shows only some results of the screen, not a fair sample: it is rich in T/C values a quarter to a half above the control, in often repeated tests (any T/C) and in doses without a T/C. Further doses and runs are listed elsewhere. T/C: endpoint of the treated group in % of that of the vehicle group. Some doses have a count of surviving animals in place of a T/C: the source files T/C as zero there, which appears to mark a toxic dose or a test without result, not a measured value. Some doses without a T/C left all or most animals alive at the check, yet need not have been tolerated: survival well below the control is almost never listed, so the zero probably covers shortened survival too. Counts of survivors are from the toxicity check (mostly the fifth day) where no day follows; animals may have died later. Schedules are NCI's codes, read here as Q, the interval in days (D) or hours (H), X, the number of doses. Some entries hold several experiments; the results are listed from low to high. Some molecules as drawn cover several salts, stereoisomers or complexes of the source; a dose is that of the sample tested. For survival time, the PubChem record calls one and a half times the control and up active, and a quarter to a half above the control has no call in these data; cut-offs in other NCI protocols can differ.

Test system: CD2F1 mice, L1210 leukemia ip, survival T/C
Experiment: NCI In Vivo Anticancer Drug Screen. Data for tumor model L1210 Leukemia (intraperitoneal) in CD2F1 (CDF1) mice
Conditions: higher T/C = longer survival
Outline: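 Antitumor effect is scored in animals hosting a serially transplanted tumor. Values compare compound-dosed animals against vehicle-only controls as a simple quotient.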

[1] = T/C endpoint: mean survival time, dose: 100.0 mg/kg/injection, schedule: Q01DX001 (ip), vehicle: saline with Tween-80
[2] = T/C endpoint: mean survival time, dose: 200.0 mg/kg/injection, schedule: Q01DX001 (ip), vehicle: saline with Tween-80
[3] = T/C endpoint: mean survival time, dose: 400.0 mg/kg/injection, schedule: Q04DX003 (ip), vehicle: saline with Tween-80
[4] = T/C endpoint: mean survival time, dose: 100.0 mg/kg/injection, schedule: Q01DX009 (ip), vehicle: saline
[5] = T/C endpoint: mean survival time, dose: 200.0 mg/kg/injection, schedule: Q04DX003 (ip), vehicle: saline with Tween-80
[6] = T/C endpoint: mean survival time, dose: 100.0 mg/kg/injection, schedule: Q04DX003 (ip), vehicle: saline with Tween-80
[7] = T/C endpoint: mean survival time, dose: 400.0 mg/kg/injection, schedule: Q01DX009 (ip), vehicle: saline with Tween-80

COc1cc2cc(c1Cl)N1CC(O)C(C)(O)C(=O)NC(C)C(=O)OC(CC1=O)C1(C)OC1C(C)C1CC(O)(NC(=O)O1)C(OC)/C=C\C=C(\C)C2OC (stereo not drawn)
T/C (T/C endpoint: median survival time, dose: 16.0 micrograms/kg/injection, schedule: Q01DX009 (ip), vehicle: distilled water + alcohol): 131 % of control

Cn1c(=O)c2c(ncn2CCCNCC(O)c2ccc(O)c(O)c2)n(C)c1=O (stereo not drawn)
survivor count (T/C endpoint: mean survival time, dose: 200.0 mg/kg/injection, schedule: Q01DX005 (ip), vehicle: water): 2 of 6

N#CC1(C#N)OC1(C#N)c1ccccc1 (stereo not drawn)
survivor count (T/C endpoint: mean survival time, dose: 6.0 mg/kg/injection, schedule: Q01DX009 (ip), vehicle: saline with Tween-80): 6 of 6
survivor count (T/C endpoint: mean survival time, dose: 12.5 mg/kg/injection, schedule: Q01DX001 (ip), vehicle: saline with Tween-80): 6 of 6
survivor count (T/C endpoint: mean survival time, dose: 25.0 mg/kg/injection, schedule: Q01DX001 (ip), vehicle: saline with Tween-80): 0 of 6
survivor count (T/C endpoint: mean survival time, dose: 50.0 mg/kg/injection, schedule: Q01DX001 (ip), vehicle: saline with Tween-80): 0 of 6
survivor count [1]: 0 of 6
survivor count [2]: 0 of 6

CC(C)(CNC1CCCCC1)OC(=O)c1ccccc1
survivor count (T/C endpoint: mean survival time, dose: 300.0 mg/kg/injection, schedule: Q01DX001 (ip), vehicle: saline): 2 of 6

Nc1nc2c(ncn2C2OC(CO)C(O)C2O)c(=O)[nH]1.Nc1nc2c(ncn2C2OC(CO)C(O)C2O)c(=O)[nH]1.[NH2-].[NH2-].[Pt+2] (stereo not drawn)
T/C (T/C endpoint: mean survival time, dose: 50.0 mg/kg/injection, schedule: Q01DX009 (ip), vehicle: water): 137 % of control
T/C (T/C endpoint: mean survival time, dose: 100.0 mg/kg/injection, schedule: Q01DX009 (ip), vehicle: water): 136 % of control
T/C (T/C endpoint: mean survival time, dose: 200.0 mg/kg/injection, schedule: Q01DX009 (ip), vehicle: water): 139 % of control

c1ccc(OCC2(N3CCCCC3)CCCC2)cc1
survivor count (T/C endpoint: mean survival time, dose: 100.0 mg/kg/injection, schedule: Q04DX002 (ip), vehicle: saline with Tween-80): 1 of 3

CC1=C2C3OC(=O)C(C)C3CCC2(C)C=CC1=O (stereo not drawn)
survivor count (T/C endpoint: mean survival time, dose: 400.0 mg/kg/injection, schedule: Q04DX002 (ip), vehicle: saline with Tween-80): 1 of 3

CCN1/C(=C/C(C)=C/c2sc3ccccc3[n+]2CC)Sc2ccccc21
survivor count (T/C endpoint: mean survival time, dose: 1.25 mg/kg/injection, schedule: Q01DX001 (ip), vehicle: other): 2 of 6
survivor count (T/C endpoint: mean survival time, dose: 2.5 mg/kg/injection, schedule: Q01DX001 (ip), vehicle: other): 2 of 6
survivor count (T/C endpoint: mean survival time, dose: 75.0 mg/kg/injection, schedule: Q01DX001 (ip), vehicle: other): 0 of 6
survivor count (T/C endpoint: mean survival time, dose: 150.0 mg/kg/injection, schedule: Q01DX001 (ip), vehicle: other): 0 of 6
survivor count (T/C endpoint: mean survival time, dose: 300.0 mg/kg/injection, schedule: Q01DX001 (ip), vehicle: other): 0 of 6
survivor count (T/C endpoint: mean survival time, dose: 800.0 micrograms/kg/injection, schedule: Q04DX003 (ip), vehicle: Klucel (hydroxypropylcellulose) (HPC)): 1 of 6
survivor count (T/C endpoint: mean survival time, dose: 1600.0 micrograms/kg/injection, schedule: Q04DX003 (ip), vehicle: Klucel (hydroxypropylcellulose) (HPC)): 3 of 6

COc1ccc(NC2=NCCS2)cc1
survivor count [3]: 4 of 6

COc1cc2c(c(OC)c1OC)-c1ccc(SC)c(=O)cc1[C@@H](NC1OC(CO)C(O)C(O)C1O)CC2 (stereo partly drawn)
T/C (T/C endpoint: mean survival time, dose: 6.25 mg/kg/injection, schedule: Q01DX009 (ip), vehicle: saline): 125 % of control
T/C (T/C endpoint: mean survival time, dose: 12.5 mg/kg/injection, schedule: Q01DX009 (ip), vehicle: saline): 141 % of control
T/C (T/C endpoint: mean survival time, dose: 25.0 mg/kg/injection, schedule: Q01DX009 (ip), vehicle: saline): 141 % of control
T/C (T/C endpoint: mean survival time, dose: 50.0 mg/kg/injection, schedule: Q01DX009 (ip), vehicle: saline): 135 % of control
survivor count [4]: 2 of 6

[O]=[Sb]([c]1ccccc1)([c]1ccccc1)[c]1ccccc1
survivor count [5]: 3 of 3
survivor count [3]: 0 of 3

CCC(C)C(=O)O[C@H]1C(=O)O[C@@H]2C[C@H]3C(C)=CC(=O)[C@@H](O)[C@]3(C)[C@H]3[C@@H](O)[C@H](O)[C@@]4(C)OC[C@]32[C@@H]14 (stereo partly drawn)
survivor count (T/C endpoint: mean survival time, dose: 8.0 mg/kg/injection, schedule: Q01DX009 (ip), vehicle: saline + alcohol): 2 of 6
survivor count (T/C endpoint: mean survival time, dose: 16.0 mg/kg/injection, schedule: Q01DX009 (ip), vehicle: saline + alcohol): 0 of 6

CC(C)(C)N[P+](Cc1ccc(C[P+](NC(C)(C)C)(NC(C)(C)C)c2ccccc2)cc1)(NC(C)(C)C)c1ccccc1
survivor count (T/C endpoint: mean survival time, dose: 6.25 mg/kg/injection, schedule: Q04DX003 (ip), vehicle: saline): 3 of 6
survivor count (T/C endpoint: mean survival time, dose: 12.5 mg/kg/injection, schedule: Q04DX003 (ip), vehicle: saline with Tween-80): 1 of 6
survivor count (T/C endpoint: mean survival time, dose: 25.0 mg/kg/injection, schedule: Q04DX003 (ip), vehicle: saline with Tween-80): 1 of 6
survivor count (T/C endpoint: mean survival time, dose: 50.0 mg/kg/injection, schedule: Q04DX003 (ip), vehicle: saline with Tween-80): 0 of 6
survivor count [6]: 0 of 6
survivor count [5]: 0 of 6
survivor count [3]: 0 of 6

ClCCn1c(CCl)nc2ccc(Cl)cc21
survivor count (T/C endpoint: mean survival time, dose: 20.0 mg/kg/injection, schedule: Q01DX009 (ip), vehicle: Klucel (hydroxypropylcellulose) (HPC)): 6 of 6
survivor count (T/C endpoint: mean survival time, dose: 40.0 mg/kg/injection, schedule: Q01DX009 (ip), vehicle: Klucel (hydroxypropylcellulose) (HPC)): 1 of 6

O=c1[nH]c2c(ccc3cnccc32)c2c1CCC2
survivor count [4]: 2 of 6 and 3 of 6

c1ccc2c3c([nH]c2c1)CN1CCNCC1C3 (stereo not drawn)
survivor count (T/C endpoint: mean survival time, dose: 100.0 mg/kg/injection, schedule: Q01DX009 (ip), vehicle: saline with Tween-80): 1 of 6
survivor count (T/C endpoint: mean survival time, dose: 200.0 mg/kg/injection, schedule: Q01DX009 (ip), vehicle: saline with Tween-80): 1 of 6
survivor count [7]: 1 of 6

CC(C)(C)OC(=O)NNC(c1ccccc1)c1ccccc1
survivor count [7]: 4 of 6

O=C(CC(O)(C(F)(F)F)C(F)(F)F)CC(O)(C(F)(F)F)C(F)(F)F
survivor count (T/C endpoint: mean survival time, dose: 10.0 mg/kg/injection, schedule: Q01DX001 (ip), vehicle: saline with Tween-80): 2 of 6
survivor count (T/C endpoint: mean survival time, dose: 20.0 mg/kg/injection, schedule: Q01DX001 (ip), vehicle: saline with Tween-80): 0 of 6
survivor count (T/C endpoint: mean survival time, dose: 20.0 mg/kg/injection, schedule: Q04DX003 (ip), vehicle: saline): 0 of 6
survivor count (T/C endpoint: mean survival time, dose: 50.0 mg/kg/injection, schedule: Q04DX003 (ip), vehicle: other): 3 of 6
survivor count [1]: 0 of 6
survivor count (T/C endpoint: mean survival time, dose: 100.0 mg/kg/injection, schedule: Q04DX003 (ip), vehicle: other): 0 of 6
survivor count [6]: 0 of 6
survivor count [2]: 0 of 6
survivor count (T/C endpoint: mean survival time, dose: 200.0 mg/kg/injection, schedule: Q04DX003 (ip), vehicle: other): 0 of 6
survivor count [5]: 0 of 6
survivor count (T/C endpoint: mean survival time, dose: 400.0 mg/kg/injection, schedule: Q01DX001 (ip), vehicle: saline with Tween-80): 0 of 6
survivor count (T/C endpoint: mean survival time, dose: 400.0 mg/kg/injection, schedule: Q04DX003 (ip), vehicle: other): 0 of 6
survivor count [3]: 0 of 6
